Assay results published in paper PMC7202510.
Results are given in words; binding and its absence hold for the method and conditions named. Some entries that bind do so weakly or less than the wild type. Where a sequence is shown, tags or fusion partners need not be part of it.

The chains behind the UniProt entries cited, without tags or fusion partners.
UniProt P04792: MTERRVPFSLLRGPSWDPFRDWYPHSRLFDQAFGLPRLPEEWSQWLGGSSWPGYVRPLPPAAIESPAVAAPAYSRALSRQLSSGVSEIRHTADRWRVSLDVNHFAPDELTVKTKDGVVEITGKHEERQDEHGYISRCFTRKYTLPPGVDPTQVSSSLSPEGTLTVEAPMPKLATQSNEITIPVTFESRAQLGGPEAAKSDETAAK

Target: T1, High-mobility group nucleosome-binding domain 5 (HMGN5), His-tagged (UniProt P82970)
T1 sequence: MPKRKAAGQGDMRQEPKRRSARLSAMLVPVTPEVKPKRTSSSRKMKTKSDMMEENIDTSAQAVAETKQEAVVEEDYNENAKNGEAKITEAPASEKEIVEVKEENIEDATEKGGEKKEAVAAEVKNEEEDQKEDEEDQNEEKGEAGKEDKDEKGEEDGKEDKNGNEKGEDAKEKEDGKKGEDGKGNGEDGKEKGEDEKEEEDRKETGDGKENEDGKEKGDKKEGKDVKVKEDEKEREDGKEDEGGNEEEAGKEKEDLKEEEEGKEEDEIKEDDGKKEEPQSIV
Assay: pull-down; results: GST-Hsp27 incubated with His-HMGN5 at 4 °C for 4 h, HMGN5 captured by Ni-NTA resin, Hsp27 detected by immunoblotting; methods: GST-fused protein on glutathione Sepharose 4B beads, His-fused protein in 20 mM Tris, 100 mM NaCl, 1 mM DTT, 1 mM EDTA, 30 min; both purified

binding: binds
Substance: Heat shock protein 27 (Hsp27), GST-tagged (from UniProt P04792 1-205)
